This is one part of the list.
Compound: CN1CC[C@H](c2c(O)cc(O)c3c(=O)cc(-c4ccccc4Cl)oc23)[C@H](O)C1 [alvocidib]
Test: log2 fold change, soluble protein after heating vs DMSO (PISA); higher = thermal stabilisation; K562 cells, 10 uM, 30 min; active = over 0.2 and 3.5 SD of the protein, either way, in both replicates (recomputed)
Procedure, shortened: (§1)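 K562 cells at 2×10^6 cells/mL were treated for 30 min with 10 μM compound, and aliquots were heated for 3 min over 48°C-58°C before pooling. Extraction used PBS with 0.5% NP-40 at 4°C, and soluble protein was the supernatant after 21,000xg for 90 min, measured by TMTpro 16plex LC-MS/MS with channel sums equalised. Thermal stability values, relative to control samples and from duplicates, are log2 fold changes.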

Protein sequences, listed by entry. Tags and fused reporters are not part of them. Lines headed by an entry give the natural chain unless they say otherwise; changes in a name come on top.
UniProt Q13685: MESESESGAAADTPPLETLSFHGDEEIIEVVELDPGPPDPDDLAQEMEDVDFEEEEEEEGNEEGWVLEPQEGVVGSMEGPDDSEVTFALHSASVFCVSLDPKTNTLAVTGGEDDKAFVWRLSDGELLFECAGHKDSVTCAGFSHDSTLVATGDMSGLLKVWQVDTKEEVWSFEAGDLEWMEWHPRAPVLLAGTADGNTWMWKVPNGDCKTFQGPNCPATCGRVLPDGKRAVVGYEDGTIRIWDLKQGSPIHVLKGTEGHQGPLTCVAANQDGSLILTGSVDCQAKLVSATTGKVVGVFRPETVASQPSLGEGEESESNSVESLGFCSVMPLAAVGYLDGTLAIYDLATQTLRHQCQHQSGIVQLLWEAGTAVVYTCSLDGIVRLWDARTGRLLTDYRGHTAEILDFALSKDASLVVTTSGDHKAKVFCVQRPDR
UniProt P49748: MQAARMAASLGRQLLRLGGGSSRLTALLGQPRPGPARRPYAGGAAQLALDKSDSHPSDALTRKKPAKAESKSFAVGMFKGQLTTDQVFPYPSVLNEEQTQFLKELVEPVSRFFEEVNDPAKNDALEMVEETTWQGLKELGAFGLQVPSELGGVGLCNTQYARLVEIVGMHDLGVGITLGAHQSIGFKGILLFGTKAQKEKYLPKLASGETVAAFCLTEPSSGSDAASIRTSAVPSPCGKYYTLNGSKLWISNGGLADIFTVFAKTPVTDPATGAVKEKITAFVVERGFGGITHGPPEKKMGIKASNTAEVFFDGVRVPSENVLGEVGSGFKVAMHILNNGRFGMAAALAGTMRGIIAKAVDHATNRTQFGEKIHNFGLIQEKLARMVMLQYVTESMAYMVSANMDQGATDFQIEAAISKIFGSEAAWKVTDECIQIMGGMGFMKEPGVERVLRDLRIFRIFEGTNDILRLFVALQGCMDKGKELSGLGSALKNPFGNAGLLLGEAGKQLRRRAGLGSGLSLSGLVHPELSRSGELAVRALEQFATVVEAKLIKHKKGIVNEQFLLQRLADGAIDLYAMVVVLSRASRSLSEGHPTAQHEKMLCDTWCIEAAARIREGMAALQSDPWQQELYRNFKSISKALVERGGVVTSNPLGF
UniProt P33121: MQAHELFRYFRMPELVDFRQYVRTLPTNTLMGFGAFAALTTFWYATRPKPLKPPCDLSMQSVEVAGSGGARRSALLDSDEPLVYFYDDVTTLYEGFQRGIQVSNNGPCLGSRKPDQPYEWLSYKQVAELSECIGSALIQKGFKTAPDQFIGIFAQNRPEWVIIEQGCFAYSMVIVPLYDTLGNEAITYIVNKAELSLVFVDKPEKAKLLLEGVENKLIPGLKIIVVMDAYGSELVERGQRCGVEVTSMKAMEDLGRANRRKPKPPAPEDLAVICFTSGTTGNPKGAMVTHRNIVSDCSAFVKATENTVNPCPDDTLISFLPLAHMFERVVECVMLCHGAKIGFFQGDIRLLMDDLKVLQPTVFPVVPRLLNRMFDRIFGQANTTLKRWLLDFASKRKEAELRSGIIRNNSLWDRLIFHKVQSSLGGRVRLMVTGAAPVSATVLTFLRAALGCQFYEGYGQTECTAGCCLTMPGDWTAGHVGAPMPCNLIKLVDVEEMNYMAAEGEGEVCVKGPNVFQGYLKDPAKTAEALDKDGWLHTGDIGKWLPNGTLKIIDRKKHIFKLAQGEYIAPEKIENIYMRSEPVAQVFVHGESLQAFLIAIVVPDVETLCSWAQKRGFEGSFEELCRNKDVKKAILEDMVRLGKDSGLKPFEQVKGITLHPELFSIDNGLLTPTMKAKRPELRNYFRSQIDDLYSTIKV
UniProt P21439, whole entry, looked up: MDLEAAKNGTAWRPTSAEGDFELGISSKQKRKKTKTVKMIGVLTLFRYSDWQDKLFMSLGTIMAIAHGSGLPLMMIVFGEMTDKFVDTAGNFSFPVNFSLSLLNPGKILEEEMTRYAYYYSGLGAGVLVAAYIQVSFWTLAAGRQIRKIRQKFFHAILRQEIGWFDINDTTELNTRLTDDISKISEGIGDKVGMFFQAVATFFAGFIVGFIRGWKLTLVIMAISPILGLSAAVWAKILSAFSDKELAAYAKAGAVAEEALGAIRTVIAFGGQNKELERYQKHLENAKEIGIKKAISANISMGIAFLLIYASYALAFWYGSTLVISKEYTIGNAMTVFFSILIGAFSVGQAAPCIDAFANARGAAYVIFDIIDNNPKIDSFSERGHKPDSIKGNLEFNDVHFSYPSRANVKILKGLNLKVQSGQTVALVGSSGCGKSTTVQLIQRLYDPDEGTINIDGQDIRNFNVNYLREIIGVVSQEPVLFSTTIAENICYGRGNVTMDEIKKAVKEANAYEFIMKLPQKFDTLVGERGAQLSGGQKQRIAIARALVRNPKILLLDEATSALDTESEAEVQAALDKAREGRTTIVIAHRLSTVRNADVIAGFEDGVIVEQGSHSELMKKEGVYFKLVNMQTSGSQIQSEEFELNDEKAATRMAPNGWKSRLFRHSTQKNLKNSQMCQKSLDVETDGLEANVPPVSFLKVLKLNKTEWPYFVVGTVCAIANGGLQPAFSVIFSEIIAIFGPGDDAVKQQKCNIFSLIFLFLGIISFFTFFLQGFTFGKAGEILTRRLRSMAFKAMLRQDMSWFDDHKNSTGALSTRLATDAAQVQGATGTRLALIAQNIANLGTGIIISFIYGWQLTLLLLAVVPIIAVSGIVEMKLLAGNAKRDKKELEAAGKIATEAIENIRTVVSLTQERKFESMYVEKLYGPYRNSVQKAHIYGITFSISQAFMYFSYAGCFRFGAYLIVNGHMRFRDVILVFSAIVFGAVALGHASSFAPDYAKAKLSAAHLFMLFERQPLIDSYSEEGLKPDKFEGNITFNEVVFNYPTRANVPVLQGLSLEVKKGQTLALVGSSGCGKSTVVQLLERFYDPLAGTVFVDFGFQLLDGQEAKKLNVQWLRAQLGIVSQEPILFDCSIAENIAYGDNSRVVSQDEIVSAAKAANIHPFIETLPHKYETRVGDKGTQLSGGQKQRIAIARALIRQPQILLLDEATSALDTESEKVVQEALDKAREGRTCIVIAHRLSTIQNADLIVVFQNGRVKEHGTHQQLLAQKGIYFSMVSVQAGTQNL
UniProt Q6PD74: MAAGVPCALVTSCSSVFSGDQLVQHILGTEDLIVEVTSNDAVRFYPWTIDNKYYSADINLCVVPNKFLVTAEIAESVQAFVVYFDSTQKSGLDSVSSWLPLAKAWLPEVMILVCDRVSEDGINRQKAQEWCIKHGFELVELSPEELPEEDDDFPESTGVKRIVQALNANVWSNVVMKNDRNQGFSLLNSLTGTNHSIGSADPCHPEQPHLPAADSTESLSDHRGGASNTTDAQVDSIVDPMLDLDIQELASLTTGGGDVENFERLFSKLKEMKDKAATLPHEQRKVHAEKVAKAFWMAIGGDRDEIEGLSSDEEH
UniProt P11117: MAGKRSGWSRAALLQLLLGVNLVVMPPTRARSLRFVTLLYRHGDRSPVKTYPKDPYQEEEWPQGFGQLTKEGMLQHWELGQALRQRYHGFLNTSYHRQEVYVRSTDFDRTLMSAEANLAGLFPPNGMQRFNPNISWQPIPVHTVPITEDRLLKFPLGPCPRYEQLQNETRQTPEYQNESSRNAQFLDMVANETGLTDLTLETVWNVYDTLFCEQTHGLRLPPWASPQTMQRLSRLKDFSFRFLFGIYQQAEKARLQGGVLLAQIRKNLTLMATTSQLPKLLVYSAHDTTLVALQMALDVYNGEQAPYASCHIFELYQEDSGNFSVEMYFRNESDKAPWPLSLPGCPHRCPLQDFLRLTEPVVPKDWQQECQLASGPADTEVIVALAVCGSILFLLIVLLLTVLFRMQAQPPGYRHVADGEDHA
UniProt Q9Y312: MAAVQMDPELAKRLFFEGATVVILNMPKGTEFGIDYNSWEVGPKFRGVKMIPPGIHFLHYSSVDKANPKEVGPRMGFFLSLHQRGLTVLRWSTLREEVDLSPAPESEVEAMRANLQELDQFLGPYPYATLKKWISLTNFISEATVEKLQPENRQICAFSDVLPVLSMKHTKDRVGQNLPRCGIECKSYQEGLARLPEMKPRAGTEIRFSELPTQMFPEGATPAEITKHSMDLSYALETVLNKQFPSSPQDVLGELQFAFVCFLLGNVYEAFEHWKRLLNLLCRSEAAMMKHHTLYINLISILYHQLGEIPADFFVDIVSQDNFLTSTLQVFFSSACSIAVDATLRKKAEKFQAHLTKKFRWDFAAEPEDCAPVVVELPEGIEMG
UniProt Q9UKV3: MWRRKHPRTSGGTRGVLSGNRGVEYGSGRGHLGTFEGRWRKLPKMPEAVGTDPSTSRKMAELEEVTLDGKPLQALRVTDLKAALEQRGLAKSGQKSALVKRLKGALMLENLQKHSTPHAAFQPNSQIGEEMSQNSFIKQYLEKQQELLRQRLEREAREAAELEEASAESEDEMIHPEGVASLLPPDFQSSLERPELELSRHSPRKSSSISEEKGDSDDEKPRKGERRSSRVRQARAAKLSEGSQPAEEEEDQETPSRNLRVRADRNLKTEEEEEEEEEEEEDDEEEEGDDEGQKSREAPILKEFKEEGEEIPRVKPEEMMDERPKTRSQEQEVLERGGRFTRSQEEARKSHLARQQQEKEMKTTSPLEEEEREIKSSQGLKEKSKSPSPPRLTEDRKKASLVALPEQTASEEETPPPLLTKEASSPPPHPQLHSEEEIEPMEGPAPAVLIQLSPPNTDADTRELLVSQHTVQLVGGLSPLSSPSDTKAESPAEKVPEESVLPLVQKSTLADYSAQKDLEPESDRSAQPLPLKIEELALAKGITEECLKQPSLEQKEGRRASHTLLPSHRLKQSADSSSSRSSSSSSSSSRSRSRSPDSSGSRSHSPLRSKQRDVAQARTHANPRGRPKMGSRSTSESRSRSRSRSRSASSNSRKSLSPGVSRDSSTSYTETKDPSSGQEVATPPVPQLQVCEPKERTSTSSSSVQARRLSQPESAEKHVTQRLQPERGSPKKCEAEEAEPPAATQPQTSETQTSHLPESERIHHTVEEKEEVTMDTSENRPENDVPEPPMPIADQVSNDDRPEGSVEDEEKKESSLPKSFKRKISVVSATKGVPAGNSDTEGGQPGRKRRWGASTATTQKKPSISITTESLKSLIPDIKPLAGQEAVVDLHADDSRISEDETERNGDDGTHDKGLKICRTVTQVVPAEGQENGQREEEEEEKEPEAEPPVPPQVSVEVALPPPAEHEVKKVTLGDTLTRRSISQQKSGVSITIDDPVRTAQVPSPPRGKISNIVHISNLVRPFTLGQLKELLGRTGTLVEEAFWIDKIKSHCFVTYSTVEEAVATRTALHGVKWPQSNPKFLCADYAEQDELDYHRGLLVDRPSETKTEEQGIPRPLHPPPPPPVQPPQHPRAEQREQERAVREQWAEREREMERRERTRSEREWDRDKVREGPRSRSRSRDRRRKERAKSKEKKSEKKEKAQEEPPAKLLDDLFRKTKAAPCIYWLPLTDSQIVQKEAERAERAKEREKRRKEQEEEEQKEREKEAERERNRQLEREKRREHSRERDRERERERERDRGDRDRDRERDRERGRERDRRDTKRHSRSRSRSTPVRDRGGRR
UniProt Q9NX38: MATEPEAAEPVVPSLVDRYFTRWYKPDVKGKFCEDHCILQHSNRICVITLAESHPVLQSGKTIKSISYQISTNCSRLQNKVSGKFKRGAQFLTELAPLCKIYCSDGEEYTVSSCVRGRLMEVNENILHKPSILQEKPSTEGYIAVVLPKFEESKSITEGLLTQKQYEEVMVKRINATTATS
UniProt Q9BTE6: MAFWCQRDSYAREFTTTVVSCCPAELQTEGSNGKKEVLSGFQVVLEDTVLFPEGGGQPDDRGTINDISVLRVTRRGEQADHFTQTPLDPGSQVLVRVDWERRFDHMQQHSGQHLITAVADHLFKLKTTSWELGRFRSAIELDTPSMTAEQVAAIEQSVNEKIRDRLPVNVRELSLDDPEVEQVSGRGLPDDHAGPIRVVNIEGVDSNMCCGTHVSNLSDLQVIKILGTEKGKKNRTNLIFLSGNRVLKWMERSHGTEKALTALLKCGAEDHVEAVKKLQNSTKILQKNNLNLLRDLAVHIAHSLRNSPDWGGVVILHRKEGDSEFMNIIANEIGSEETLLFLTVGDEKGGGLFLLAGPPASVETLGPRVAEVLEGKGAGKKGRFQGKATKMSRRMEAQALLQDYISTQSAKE
UniProt P42025, whole entry, looked up: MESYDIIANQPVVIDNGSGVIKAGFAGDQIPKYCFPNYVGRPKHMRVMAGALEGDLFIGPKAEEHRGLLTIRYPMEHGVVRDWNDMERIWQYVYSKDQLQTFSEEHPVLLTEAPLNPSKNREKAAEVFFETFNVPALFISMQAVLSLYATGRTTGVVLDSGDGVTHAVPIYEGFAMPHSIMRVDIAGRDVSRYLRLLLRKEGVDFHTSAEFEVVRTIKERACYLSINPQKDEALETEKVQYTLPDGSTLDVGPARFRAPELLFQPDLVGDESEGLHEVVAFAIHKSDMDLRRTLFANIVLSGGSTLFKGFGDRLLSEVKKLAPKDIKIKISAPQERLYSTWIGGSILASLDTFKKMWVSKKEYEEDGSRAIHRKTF

Target | log2 fold change
ACAT1, A0A5F9ZHJ0 | inactive: 0.142
ACTN4 (UniProt K7EJH8) | inactive: -0.119
ACYP2 (UniProt P14621) | inactive: 0.029
ACTG1 (UniProt K7EM38) | inactive: -0.157
ACSS1 (UniProt Q9NUB1) | inactive: -0.068
ABRAXAS1 (UniProt Q6UWZ7) | inactive: 0.336

Compound: CN1CCc2c(c3ccccc3n2Cc2ccc(C(=O)NO)cc2)C1 [Tubastatin A]
Test: as above
Procedure, shortened: as §1

Target | log2 fold change
ACSF3 (UniProt Q4G176) | inactive: -0.067
ACAT1, A0A5F9ZHJ0 | inactive: -0.025
AAMP (UniProt Q13685) | inactive: -0.049
ACADVL isoform 3 (UniProt P49748) | inactive: -0.028
ACSL1 (UniProt P33121) | inactive: -0.075
ACOX3 (UniProt O15254) | active: -0.465
ABCB4 (UniProt P21439) | inactive: 0.059
ABCA3 (UniProt Q99758) | inactive: -0.05
ACVR1 (UniProt Q04771) | inactive: -0.042
AAGAB (UniProt Q6PD74) | inactive: 0.016
ACP2 (UniProt P11117) | inactive: -0.036
ABHD6 (UniProt Q9BV23) | inactive: 0.205
ACACB (UniProt O00763) | inactive: 0.087
AAR2 (UniProt Q9Y312) | inactive: -0.027
ACP1 (UniProt P24666) | inactive: 0.141
ACO2 (UniProt Q99798) | inactive: -0.021
ACIN1 (UniProt Q9UKV3) | inactive: 0.032

Target | log2 fold change
ABHD11 (UniProt Q8NFV4) | inactive: 0.096
ACTN4 (UniProt K7EJH8) | inactive: -0.099
ABHD16A (UniProt O95870) | inactive: 0.004
ACYP2 (UniProt P14621) | inactive: 0.14
ACADM isoform 2 (UniProt P11310) | inactive: -0.03
ABITRAM (UniProt Q9NX38) | inactive: -0.007
AAK1 (UniProt Q2M2I8) | inactive: 0.003
AARSD1 isoform 3 (UniProt Q9BTE6) | active: -0.336
ACTG1 (UniProt K7EM38) | inactive: 0.098
ACTR1B (UniProt P42025) | inactive: -0.004
AARS2 (UniProt Q5JTZ9) | inactive: -0.096
A2ML1 (UniProt A8K2U0) | inactive: 0.069
ACSL5 isoform 3 (UniProt Q9ULC5) | inactive: -0.057
ACSS1 (UniProt Q9NUB1) | inactive: -0.012
ABL1 isoform 2 (UniProt P00519) | inactive: 0.071
ABRAXAS1 (UniProt Q6UWZ7) | inactive: 0.034
ACAP2 (UniProt Q15057) | inactive: 0.001

From the supplement of paper PMC10849652
